Experimental data reported in patent US20070141632A1.
No constants are given. Whether binding was seen depends on the method and setting. Some results given as binding are weak or reduced against the parent protein; the word gives no strength. Sequences can lack the tags named with a protein.

The chains behind the UniProt entries cited, without tags or fusion partners. Residues count along the entry.
UniProt Q05793, residues 22-3707: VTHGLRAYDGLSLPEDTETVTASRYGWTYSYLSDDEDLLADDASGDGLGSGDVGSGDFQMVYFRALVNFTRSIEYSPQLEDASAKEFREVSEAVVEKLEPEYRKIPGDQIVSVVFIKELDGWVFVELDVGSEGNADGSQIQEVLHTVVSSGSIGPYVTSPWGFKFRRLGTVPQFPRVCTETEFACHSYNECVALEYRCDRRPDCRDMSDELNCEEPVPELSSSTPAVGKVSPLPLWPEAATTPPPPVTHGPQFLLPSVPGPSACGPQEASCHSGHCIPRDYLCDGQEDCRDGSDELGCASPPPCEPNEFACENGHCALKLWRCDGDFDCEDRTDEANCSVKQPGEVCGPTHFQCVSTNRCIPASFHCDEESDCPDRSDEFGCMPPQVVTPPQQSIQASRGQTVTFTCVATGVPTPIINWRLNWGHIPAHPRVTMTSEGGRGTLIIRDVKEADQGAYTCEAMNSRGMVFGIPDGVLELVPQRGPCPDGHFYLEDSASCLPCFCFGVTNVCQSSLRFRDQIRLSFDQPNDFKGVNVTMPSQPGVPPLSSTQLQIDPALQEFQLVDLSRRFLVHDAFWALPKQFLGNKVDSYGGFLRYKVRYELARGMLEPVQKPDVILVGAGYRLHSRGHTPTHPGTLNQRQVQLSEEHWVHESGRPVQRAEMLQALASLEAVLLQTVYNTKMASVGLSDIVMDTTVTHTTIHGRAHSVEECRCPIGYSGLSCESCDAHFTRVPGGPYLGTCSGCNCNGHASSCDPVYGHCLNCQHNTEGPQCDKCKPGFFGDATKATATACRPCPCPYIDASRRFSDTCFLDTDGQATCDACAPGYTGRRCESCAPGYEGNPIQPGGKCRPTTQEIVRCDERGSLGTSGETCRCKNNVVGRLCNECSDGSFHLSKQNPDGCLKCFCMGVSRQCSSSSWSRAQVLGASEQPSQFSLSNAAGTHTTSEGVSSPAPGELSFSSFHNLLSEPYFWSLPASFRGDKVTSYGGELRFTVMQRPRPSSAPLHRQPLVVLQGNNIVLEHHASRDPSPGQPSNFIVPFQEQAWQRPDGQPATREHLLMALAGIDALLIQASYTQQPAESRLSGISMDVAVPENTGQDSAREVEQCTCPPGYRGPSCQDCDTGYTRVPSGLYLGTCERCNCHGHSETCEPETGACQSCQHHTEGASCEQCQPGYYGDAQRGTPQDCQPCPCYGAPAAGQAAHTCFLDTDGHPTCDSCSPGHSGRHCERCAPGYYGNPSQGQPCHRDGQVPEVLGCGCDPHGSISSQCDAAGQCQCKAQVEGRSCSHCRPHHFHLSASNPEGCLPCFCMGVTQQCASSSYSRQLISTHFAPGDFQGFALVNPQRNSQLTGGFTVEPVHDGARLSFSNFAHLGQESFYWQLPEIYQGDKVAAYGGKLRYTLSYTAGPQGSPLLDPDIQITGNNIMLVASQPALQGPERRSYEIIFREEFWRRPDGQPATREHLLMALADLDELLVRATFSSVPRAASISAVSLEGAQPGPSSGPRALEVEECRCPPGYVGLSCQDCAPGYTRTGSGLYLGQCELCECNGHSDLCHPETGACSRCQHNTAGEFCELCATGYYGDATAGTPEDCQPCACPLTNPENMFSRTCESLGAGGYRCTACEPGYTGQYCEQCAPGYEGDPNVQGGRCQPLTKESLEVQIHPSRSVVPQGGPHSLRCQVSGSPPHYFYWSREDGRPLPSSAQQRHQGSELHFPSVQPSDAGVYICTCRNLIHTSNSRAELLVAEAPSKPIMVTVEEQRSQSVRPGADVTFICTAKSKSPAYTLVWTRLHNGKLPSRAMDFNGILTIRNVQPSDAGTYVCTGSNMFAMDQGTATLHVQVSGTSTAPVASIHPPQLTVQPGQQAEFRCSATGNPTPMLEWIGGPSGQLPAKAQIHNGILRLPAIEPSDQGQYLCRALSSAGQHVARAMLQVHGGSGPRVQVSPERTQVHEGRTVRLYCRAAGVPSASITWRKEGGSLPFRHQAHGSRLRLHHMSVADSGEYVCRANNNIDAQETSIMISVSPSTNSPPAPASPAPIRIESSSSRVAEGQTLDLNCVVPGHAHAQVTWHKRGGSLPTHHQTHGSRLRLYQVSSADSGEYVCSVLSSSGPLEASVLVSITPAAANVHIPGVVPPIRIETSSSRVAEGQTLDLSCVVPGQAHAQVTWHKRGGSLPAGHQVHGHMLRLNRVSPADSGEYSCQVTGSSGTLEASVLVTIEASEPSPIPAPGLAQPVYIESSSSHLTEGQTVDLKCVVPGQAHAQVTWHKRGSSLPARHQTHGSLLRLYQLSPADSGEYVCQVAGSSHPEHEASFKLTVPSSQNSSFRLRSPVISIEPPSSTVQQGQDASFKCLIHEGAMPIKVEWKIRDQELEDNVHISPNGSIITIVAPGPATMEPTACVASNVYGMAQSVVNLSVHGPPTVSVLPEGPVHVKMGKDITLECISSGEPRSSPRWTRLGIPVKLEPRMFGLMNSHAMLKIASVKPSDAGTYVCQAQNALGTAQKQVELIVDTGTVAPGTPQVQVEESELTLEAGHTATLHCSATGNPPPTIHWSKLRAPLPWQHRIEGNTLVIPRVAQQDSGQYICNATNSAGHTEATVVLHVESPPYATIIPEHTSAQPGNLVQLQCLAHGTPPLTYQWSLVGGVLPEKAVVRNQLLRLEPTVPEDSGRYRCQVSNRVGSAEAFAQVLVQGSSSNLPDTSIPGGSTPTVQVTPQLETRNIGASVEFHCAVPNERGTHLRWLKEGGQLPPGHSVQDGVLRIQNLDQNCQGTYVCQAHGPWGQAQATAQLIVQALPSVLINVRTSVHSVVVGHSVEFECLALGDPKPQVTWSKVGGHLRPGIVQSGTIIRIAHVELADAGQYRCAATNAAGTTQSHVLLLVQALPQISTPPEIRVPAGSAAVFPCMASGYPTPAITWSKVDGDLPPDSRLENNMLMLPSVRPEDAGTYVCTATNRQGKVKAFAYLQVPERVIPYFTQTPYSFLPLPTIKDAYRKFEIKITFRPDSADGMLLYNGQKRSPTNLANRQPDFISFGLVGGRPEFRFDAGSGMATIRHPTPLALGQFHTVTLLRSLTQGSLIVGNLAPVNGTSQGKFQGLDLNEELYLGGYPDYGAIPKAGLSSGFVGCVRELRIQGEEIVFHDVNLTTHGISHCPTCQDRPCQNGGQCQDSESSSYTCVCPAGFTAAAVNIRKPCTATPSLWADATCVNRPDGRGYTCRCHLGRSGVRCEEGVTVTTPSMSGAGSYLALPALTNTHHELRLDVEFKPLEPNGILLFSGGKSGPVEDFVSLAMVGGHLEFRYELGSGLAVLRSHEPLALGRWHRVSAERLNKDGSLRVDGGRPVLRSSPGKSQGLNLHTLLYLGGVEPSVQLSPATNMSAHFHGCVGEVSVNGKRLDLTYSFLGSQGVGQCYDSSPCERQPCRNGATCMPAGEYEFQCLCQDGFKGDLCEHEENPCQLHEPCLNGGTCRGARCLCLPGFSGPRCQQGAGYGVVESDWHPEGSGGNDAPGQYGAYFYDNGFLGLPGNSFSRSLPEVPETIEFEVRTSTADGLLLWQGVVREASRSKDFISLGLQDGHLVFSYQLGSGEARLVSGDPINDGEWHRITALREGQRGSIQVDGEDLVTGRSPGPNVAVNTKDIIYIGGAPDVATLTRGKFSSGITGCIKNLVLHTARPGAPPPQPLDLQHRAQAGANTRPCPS

Molecular target: perlecan on the surface of LLCAng-3 cells (UniProt Q05793)
Test: immunocolocalization of Ang-3v5 and perlecan on LLCAng-3 cells and in the ECM

B1: v5 epitope tagged mouse Ang-3 (Ang-3v5) bound on the surface of transfected cells (LLCAng-3) (ligand, not shown: small tags and cut ends)
chain: AQHRGPEAGGHRQIHQVRRGQCSYTFVVPEPDICQLAPTAAPEALGGSNSLQRDLPASRLHLTDWRAQRAQRAQRVSQLEKILENNTQWLLKLEQSIKVNLRSHLVQAQQDTIQNQTTTMLALGANLMNQTKAQTHKLTAVEAQVLNQTLHMKTQMLENSLSTNKLERQMLMQSRELQRLQGRNRALETRLQALEAQHQAQLNSLQEKREQLHSLLGHQTGTLANLKHNLHALSSNSSSLQQQQQQLTEFVQRLVRIVAQDQHPVSLKTPKPVFQDCAEIKRSGVNTSGVYTIYETNMTKPLKVFCDMETDGGGWTLIQHREDGSVNFQRTWEEYKEGFGNVAREHWLGNEAVHRLTSRTAYLLRVELHDWEGRQTSIQYENFQLGSERQRYSLSVNDSSSSAGRKNSLAPQGTKFSTKDMDNDNCMCKCAQMLSGGWWFDACGLSNLNGIYYSVHQHLHKINGIRWHYFRGPSYSLHGTRMMLRPMGA
binding: binds
